Results: paper doi:10.1101/430637
Where two headings read alike, the source gives them in different places. These are yes or no findings as the source states them, for the method shown. In cells and extracts the contact can be indirect. Some entries that bind do so weakly or less than the wild type. For some assays here: Sequences can lack the tags named with a protein.

Sequences of proteins named here, by UniProt entry; tags and fusion partners are left off.
UniProt P07632: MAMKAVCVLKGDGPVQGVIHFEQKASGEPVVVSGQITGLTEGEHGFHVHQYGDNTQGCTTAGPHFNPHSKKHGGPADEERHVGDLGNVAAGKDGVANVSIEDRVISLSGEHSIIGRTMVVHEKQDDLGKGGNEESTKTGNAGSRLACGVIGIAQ
UniProt O54857: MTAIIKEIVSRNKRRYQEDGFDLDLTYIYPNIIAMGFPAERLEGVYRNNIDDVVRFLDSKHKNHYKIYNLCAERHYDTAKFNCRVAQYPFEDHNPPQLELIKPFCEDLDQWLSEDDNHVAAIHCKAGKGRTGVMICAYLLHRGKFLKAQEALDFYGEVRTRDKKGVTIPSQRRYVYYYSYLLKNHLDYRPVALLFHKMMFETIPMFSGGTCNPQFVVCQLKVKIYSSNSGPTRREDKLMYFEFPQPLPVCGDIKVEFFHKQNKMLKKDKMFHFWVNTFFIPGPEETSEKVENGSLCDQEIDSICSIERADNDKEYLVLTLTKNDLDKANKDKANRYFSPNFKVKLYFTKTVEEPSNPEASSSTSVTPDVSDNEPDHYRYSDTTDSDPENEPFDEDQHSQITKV

Key:
Assay in all cases: co-IP
[1] = target: T1, NADPH oxidase-4 (NOX4), endogenous in McArdle hepatocytes (rat (endogenous in McArdle 7777 hepatoma cells)) (UniProt Q924V1)
T1 sequence: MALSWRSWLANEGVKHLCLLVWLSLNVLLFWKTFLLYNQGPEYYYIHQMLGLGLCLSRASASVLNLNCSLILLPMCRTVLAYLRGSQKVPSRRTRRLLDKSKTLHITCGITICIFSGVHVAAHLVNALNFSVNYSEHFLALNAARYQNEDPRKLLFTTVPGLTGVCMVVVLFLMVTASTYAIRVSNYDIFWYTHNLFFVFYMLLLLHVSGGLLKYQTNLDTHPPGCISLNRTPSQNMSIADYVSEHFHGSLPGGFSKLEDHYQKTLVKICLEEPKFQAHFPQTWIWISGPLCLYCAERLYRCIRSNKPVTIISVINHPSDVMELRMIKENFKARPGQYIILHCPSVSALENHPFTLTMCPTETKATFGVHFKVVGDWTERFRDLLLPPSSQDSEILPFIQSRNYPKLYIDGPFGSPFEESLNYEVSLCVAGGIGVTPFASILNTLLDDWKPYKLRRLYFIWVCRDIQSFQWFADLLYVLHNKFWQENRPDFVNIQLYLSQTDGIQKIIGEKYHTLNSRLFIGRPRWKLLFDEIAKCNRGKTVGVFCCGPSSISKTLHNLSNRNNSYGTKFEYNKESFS

[2] = target: T2, aquaporin-3 (AQP3), endogenous in McArdle hepatocytes (rat (endogenous in McArdle 7777 hepatoma cells)) (UniProt P47862)
T2 sequence: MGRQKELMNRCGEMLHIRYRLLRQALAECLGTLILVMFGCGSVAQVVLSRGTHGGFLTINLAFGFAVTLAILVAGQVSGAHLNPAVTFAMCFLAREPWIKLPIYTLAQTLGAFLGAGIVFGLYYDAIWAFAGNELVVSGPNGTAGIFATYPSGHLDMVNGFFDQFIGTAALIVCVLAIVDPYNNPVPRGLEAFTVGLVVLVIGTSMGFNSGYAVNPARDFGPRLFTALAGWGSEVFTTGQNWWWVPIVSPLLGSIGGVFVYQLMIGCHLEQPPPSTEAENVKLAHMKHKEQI

[3] = target: T3, wild-type human NOX4 with C-terminal Flag epitope tag (wt-NOX4-Flag) (human) (UniProt Q9NPH5)
T3 sequence: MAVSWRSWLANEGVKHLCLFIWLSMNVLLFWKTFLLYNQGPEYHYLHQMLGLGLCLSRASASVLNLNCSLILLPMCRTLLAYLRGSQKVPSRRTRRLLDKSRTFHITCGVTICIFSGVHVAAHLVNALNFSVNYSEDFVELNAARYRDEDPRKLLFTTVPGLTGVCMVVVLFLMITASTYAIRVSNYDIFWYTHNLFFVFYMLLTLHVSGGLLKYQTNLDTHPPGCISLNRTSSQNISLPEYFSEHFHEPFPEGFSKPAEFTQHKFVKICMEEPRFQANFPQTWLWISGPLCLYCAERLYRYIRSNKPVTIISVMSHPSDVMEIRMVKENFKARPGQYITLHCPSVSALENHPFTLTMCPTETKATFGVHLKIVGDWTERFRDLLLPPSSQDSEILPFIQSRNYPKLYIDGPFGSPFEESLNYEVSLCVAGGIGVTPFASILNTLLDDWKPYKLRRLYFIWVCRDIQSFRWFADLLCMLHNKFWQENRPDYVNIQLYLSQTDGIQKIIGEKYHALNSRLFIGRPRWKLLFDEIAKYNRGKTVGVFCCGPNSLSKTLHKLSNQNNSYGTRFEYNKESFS

[4] = target: T1, NADPH oxidase-4 (NOX4), endogenous in McArdle hepatocytes (rat (endogenous in McArdle 7777 hepatoma cells)); remark: listed apart in the source

superoxide dismutase-1 (cytosolic SOD1), endogenous in McArdle hepatocytes (from UniProt P07632 1-154) (enzyme)
binding [1]: no binding

PTEN, endogenous in McArdle hepatocytes (from UniProt O54857 1-403) (enzyme)
binding [2]: binds

B1: superoxide dismutase-3 (SOD3, extracellular SOD), endogenous in McArdle hepatocytes (enzyme, UniProt Q08420 16-244)
chain: SVTWTMSDTGESGVDLADRLDLVEKIGDTHSKDLEIWMELGKQREADAREMHAVCRVQPSAMLPPDQPQITGLVLFRQLGPSSRLEASFNLEGFPAEQNTSNHAIHVHEFGDLSQGCESTGPHYNPLGVPHPQHPGDFGNFVVRDGRLWKHRMGLATSLAGPHSILGRAVVVHAGEDDLGKGGNQASVQNGNAGRRLACCVVGTSNSEAWESQTKERKKRRRESECKTT
binding [3]: binds
binding [4]: binds

B2: superoxide dismutase-2 (mitochondrial SOD2), endogenous in McArdle hepatocytes (enzyme, UniProt P07895 25-222)
chain: KHSLPDLPYDYGALEPHINAQIMQLHHSKHHATYVNNLNVTEEKYHEALAKGDVTTQVALQPALKFNGGGHINHSIFWTNLSPKGGGEPKGELLEAIKRDFGSFEKFKEKLTAVSVGVQGSGWGWLGFNKEQGRLQIAACSNQDPLQGTTGLIPLLGIDVWEHAYYLQYKNVRPDYLKAIWNVINWENVSQRYIVCKK
binding [4]: no binding
